{"source": "paper PMC12042267", "about": "“Expanding the Family of Monosubstituted 15-Membered Pyridine-Based Macrocyclic Ligands for Mn(II) Complexation in the Context of MRI” (Inorganic Chemistry, 2025)", "key": {"[1]": {"settings": "cited from earlier work"}, "[2]": {"experiment": "Semiempirical estimation of hydration number from molecular weight and low field relaxivity", "format": "physicochemical", "settings": "from molecular weight and low field relaxivity (0.01 MHz)"}, "[3]": {"experiment": "Simultaneous analysis of 17O NMR and 1H NMRD data (Solomon-Bloembergen-Morgan)", "format": "physicochemical", "settings": "for CN (coordination number): first figure of CN/q; for q (hydration number): second figure of CN/q", "method": "^1H NMRD profiles on aqueous solutions of MnL2 (cMn2+ = 0.98 mM; pH = 7.22) and MnL3 (cMn2+ = 0.96 mM; pH = 7.20) were recorded at 25 and 37 °C on a SMARTracer Fast Field Cycling NMR relaxometer (Stelar; 0.00024–0.24 T, 0.01–10 MHz ^1H Larmor frequency) and a WP80 NMR electromagnet adapted to variable-field measurements (Bruker; 0.47–1.88 T, 20–80 MHz ^1H Larmor frequency). The temperature was maintained by a gas flow and monitored by a VTC91 temperature control unit based on previous calibration with a Pt resistance temperature probe.\nVariable-temperature ^17O NMR measurements of aqueous solutions of MnL2 (cMnL = 3.70 mmol·kg^–1, pH = 7.03) and MnL3 (cMnL = 3.72 mmol·kg^–1, pH = 7.2) were performed on a Bruker Avance III 400 MHz spectrometer (9.4 T, 54.2 MHz) in the temperature range 5–75 °C. The temperature was calculated after calibration with ethylene glycol and […]. Acidified water (HClO4, pH = 3.3) was used as a diamagnetic reference. The ^17O transverse relaxation times (T2) were obtained by using the CPMG spin–echo technique. To eliminate susceptibility contributions to the chemical shift, the sample was in a glass sphere placed in a 10 mm NMR tube. To improve the sensitivity, ^17O-enriched water (11.10% H2^17O, Cortecnet) was added to the solution to yield approximately 1% ^17O enrichment.\nThe ^17O NMR and NMRD data have been analyzed according to the Solomon–Bloembergen–Morgan theory of paramagnetic relaxation.[3] The least-squares fit was performed using Visualizeur/Optimiseur running on a MATLAB 8.3.0 (R2014a) platform.\n^1H NMRD profiles were recorded at 25 and 37 °C in the magnetic field range 0.01–80 MHz (Figure 6, bottom). The reduced transverse ^17O relaxation rates were simultaneously fitted with ^1H NMRD data according to the Solomon–Bloembergen–Morgan theory (equations are given in SI). The fitted parameters are summarized in Table 6 and compared to those for seven-coordinate Mn(II) complexes of L1 and 15-pyN3O2 ligands, as well as of [Mn(H2O)6]^2+.\nThe shape of the ^1H NMRD curves reflects typical low-molecular-weight complexes. The profiles display one dispersion between 1 and 10 MHz as has been previously described for other complexes except [Mn(H2O)6]^2+.[49],[50] The hydration number of MnL2 and MnL3 was assumed in both cases to be q = 1 for a total coordination number of CN = 7, based on the X-ray crystal structure. In aqueous solution, the chloride or the acetonitrile that coordinates to Mn(II) in the solid state will be replaced by one water molecule to complete the coordination sphere of Mn(II). As it was described by Gale et al.,[51] the ^17O T2 values can also give an estimate of hydration number, provided the 1/T2r vs temperature curve has a maximum. […]"}, "[4]": {"settings": "second pair 7/1, at pH value above 8.0 ref 22"}}, "note": "Like-named read-outs stand apart in the source and are kept apart here.", "data": [{"smiles": "O.O=C([O-])CN1CCNCc2cccc(n2)CN(CC(=O)[O-])CC1.[Mn+2]", "note": "[Mn(3,6-PC2A)]", "values": [{"measurement": "CN (coordination number)", "setting": "[1]; first figure of CN/q ref 21", "result": 7}, {"measurement": "q (hydration number)", "setting": "[1]; second figure of CN/q ref 21", "result": 1}]}, {"smiles": "O.O=C([O-])CN1CCOCCN(CC(=O)[O-])Cc2cccc(n2)C1.[Mn+2]", "note": "[Mn(3,9-OPC2A)]", "values": [{"measurement": "CN (coordination number)", "setting": "[1]; first figure of CN/q ref 26", "result": 7}, {"measurement": "q (hydration number)", "setting": "[1]; second figure of CN/q ref 26", "result": 1}]}, {"smiles": "O.O=C([O-])CN1CCNCCN(CC(=O)[O-])Cc2cccc(n2)C1.[Mn+2]", "note": "[Mn(3,9-PC2A)]", "values": [{"measurement": "CN (coordination number)", "setting": "[1]; first figure of CN/q ref 21", "result": 7}, {"measurement": "q (hydration number)", "setting": "[1]; second figure of CN/q ref 21", "result": 1}]}, {"smiles": "O.O.[Mn+2].c1cc2nc(c1)CNCCOCCOCCNC2", "note": "[Mn(15-pyN3O2)]", "values": [{"measurement": "CN (coordination number)", "setting": "[1]; first figure of CN/q ref 28", "result": 7}, {"measurement": "q (hydration number)", "setting": "[1]; second figure of CN/q ref 28", "result": 2}]}, {"smiles": "O.O.[Mn+2].c1cc2nc(c1)CNCCOc1ccccc1OCCNC2", "note": "[Mn(15-pyN3O2Ph)]", "values": [{"measurement": "CN (coordination number)", "setting": "[1]; first figure of CN/q ref 29", "result": 7}, {"measurement": "q (hydration number)", "setting": "[1]; second figure of CN/q ref 29", "result": 2}]}, {"smiles": "O.O.[Mn+2].c1cc2nc(c1)CNCCNCCNCCNC2", "note": "[Mn(15-pyN5)]", "values": [{"measurement": "CN (coordination number)", "setting": "[1]; first figure of CN/q ref 28", "result": 7}, {"measurement": "q (hydration number)", "setting": "[1]; second figure of CN/q ref 28", "result": 2}]}, {"smiles": "O.O=C([O-])CN1CCOCCOCCNCc2cccc(n2)C1.[Mn+2]", "note": "[MnL1]", "values": [{"measurement": "CN (coordination number)", "setting": "[1]; first figure of CN/q ref 30", "result": 7}, {"measurement": "q (hydration number)", "setting": "[1]; second figure of CN/q ref 30", "result": 1}]}, {"smiles": "O.[Mn+2].c1ccc(CN2CCOCCOCCNCc3cccc(n3)C2)nc1", "note": "[MnL2]", "values": [{"measurement": "q estimated by semiempirical method", "setting": "[2]", "result": 0.73}, {"measurement": "CN (coordination number)", "setting": "[3]", "result": 7}, {"measurement": "q (hydration number)", "setting": "[3]", "result": 1}]}, {"smiles": "O.[Mn+2].c1cc2nc(c1)CN(Cc1nc3ccccc3[nH]1)CCOCCOCCNC2", "note": "[MnL3]", "values": [{"measurement": "q estimated by semiempirical method", "setting": "[2]", "result": 0.76}, {"measurement": "CN (coordination number)", "setting": "[3]", "result": 7}, {"measurement": "q (hydration number)", "setting": "[3]", "result": 1}]}, {"smiles": "O.O=C([O-])CN1CCNCc2cccc(n2)CNCC1.[Mn+2]", "note": "[[Mn(PC1A)(H2O)]^+]", "values": [{"measurement": "CN (coordination number)", "setting": "[1]; first figure of CN/q ref 20", "result": 6}, {"measurement": "q (hydration number)", "setting": "[1]; second figure of CN/q ref 20", "result": 1}]}, {"smiles": "O.O=P([O-])([O-])CN1CCNCc2cccc(n2)CNCC1.[Mn+2]", "note": "[[Mn(PC1P)(H2O)]]", "values": [{"measurement": "CN (coordination number)", "setting": "[1]; first figure of CN/q ref 20", "result": 6}, {"measurement": "q (hydration number)", "setting": "[1]; second figure of CN/q ref 20", "result": 1}]}, {"smiles": "O.O=C([O-])CN1CCN(Cc2ccc(-c3ccccc3)cc2)CCN(CC(=O)[O-])Cc2cccc(n2)C1.[Mn+2]", "note": "[[Mn(PC2A-BP)(H2O)]]", "values": [{"measurement": "CN (coordination number)", "setting": "[1]; first figure of CN/q ref 29", "result": 7}, {"measurement": "q (hydration number)", "setting": "[1]; second figure of CN/q ref 29", "result": 1}]}, {"smiles": "NCCN1CCN(CC(=O)[O-])Cc2cccc(n2)CN(CC(=O)[O-])CC1.O.[Mn+2]", "note": "[[Mn(PC2A-EA)(H2O)]]", "values": [{"measurement": "CN (coordination number)", "setting": "[1]; first pair 7/0 ref 22", "result": 7}, {"measurement": "q (hydration number)", "setting": "[1]; first pair 7/0 ref 22", "result": 0}, {"measurement": "CN (coordination number)", "setting": "[1]; [4]", "result": 7}, {"measurement": "q (hydration number)", "setting": "[1]; [4]", "result": 1}]}]}
